Laboratory results: PubChem BioAssay AID651640 (Broad Institute, 2012)
“And” between values parts separate entries of the source, which are not always exact repeats. Identical values can stand only once. About 6,000 (1.7%) of roughly 350,000 compounds were called active. The inconclusive results got no clear call from the source; some entries with a clear call stand among them for comparison. Cut-off read from the data, not from the text of the source: active = CPE inhibition above about 20% (passing the limit was not always enough); inconclusive = no clear call, values can overlap the other calls; tested in BHK-21 cells.

test: protection of cells from dengue 2 killing – plate reader, single concentration, primary screen (AID 651640); details: DENV2-infected cells, cytopathic effect rescue, at 9.99 µM, stronger effect = higher value;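 note: 0% = median of neutral control wells and 100% = median of positive control wells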

SMILES	CPE inhibition
NC(=O)c1nsc(C(=O)N(CC(=O)NCc2ccccc2)c2cccc(F)c2)c1N	inconclusive: 21.6%
COc1cc(OC)c2c(-c3ccccc3)cc(=O)oc2c1C(CCN1CCCC(C)C1)c1ccc2c(c1)OCO2 (centres undefined)	inactive: -8.48%
Cc1cc2c(cc1C)N(Cc1ccccc1)C1=NCCCN12	inconclusive: 21.3%
CCC[C@@H]1CCCO[C@@](C(=O)NCc2ccccn2)(C(F)(F)F)C1	active: 68.8%
CCCCNC(=O)C[C@@H]1C[C@@]2(C(=O)OC)CCCCC=C2N(Cc2cccc3ccccc23)C1=O	inconclusive: 21.5%
O=C(Nc1ccc(S(=O)(=O)Nc2ncccn2)cc1)c1cccc([N+](=O)[O-])c1	active: 71.1%
COC(=O)C1=C(C(=O)OC)[C@@H]2Nc3ccccc3[C@@]23C[C@@H](C(=O)OC)N(C(=O)c2ccco2)C3=N1	inconclusive: 79.5%
COc1ccc(S(N)(=O)=O)cc1C(=O)NNC(=O)CN(C)S(=O)(=O)c1ccc(Cl)cc1	inconclusive: 52.7%
CN(c1ccccc1)c1ccc(/C=C(/CCC(=O)O)c2nc3ccccc3s2)cc1[N+](=O)[O-]	inactive: 6.43%
Cc1ccc(-c2cnc3c(c2)C(=O)N([C@@H](C)CO)C[C@@H](C)[C@@H](CN(C)C(=O)Cc2cccnc2)O3)cc1	inconclusive: 3.25%
Cc1ccc(CNC(=O)C2CSC3(C)CCC(=O)N23)cc1 (centres undefined)	inconclusive: 25.8%
O=C(NC1CCCCC1)N1CC(=O)N2[C@H](CO)[C@@H](c3ccc(-c4ccccc4)cc3)[C@H]2C1	inactive: -6.28%
CCc1nc(N2CCCCC2C(=O)O)c2oc3ccccc3c2n1 (centres undefined)	inactive: -2.66%
O=C(NCC[C@@H]1CC[C@H](NS(=O)(=O)c2ccccc2F)[C@H](CO)O1)c1ccc(F)cc1	inactive: 1.1%
CCCCN(C(=O)c1cccc(-n2cccc2)c1)c1c(N)n(Cc2ccccc2)c(=O)[nH]c1=O	inactive: -6.06%
O=C(c1sccc1Br)N1CCN(Cc2ccc3c(c2)OCO3)CC1	inconclusive: 30.2%
C[C@H](O)[C@@H]1CN2CCc3ccc(-c4ccc5c(c4)OCO5)cc3[C@@H]2C[C@@H]1N(C)Cc1cc(Cl)cc(Cl)c1	inconclusive: 20.5%
N#C[C@@H]1[C@@H](c2ccc(C3=CCCC3)cc2)[C@@H](CO)N1c1nc(-c2ccccc2)cs1	inconclusive: 22.9%
COc1ccc(CCNC(=O)C23CN(Cc4ccccc4)CC2C(c2ccc([N+](=O)[O-])cc2)=NO3)cc1 (centres undefined)	inconclusive: 102%
COC(=O)c1ccc2nc(C3CCCCC3)c(CC(C)(C)C)n2c1	inconclusive: 26.4%
Cc1ccc(S(=O)(=O)Nc2ccc3c(c2)C(=O)N([C@H](C)CO)C[C@H](C)[C@@H](CN(C)C(=O)Nc2cccc4ccccc24)O3)cc1	active: 40.7%
O=C(Nc1ccccc1)C1=C[C@H](C2CCCCC2)C[C@H](OCc2ccc(CO)cc2)O1	inactive: 9.76% and inactive: -1.31%
CC(C)NC(=O)Nc1cccc2c1O[C@@H](CN(C)C(=O)Nc1ccc(C(F)(F)F)cc1)[C@@H](C)CN([C@H](C)CO)C2=O	inconclusive: 44.2%
CCN(C(=O)N(CC)c1ccccc1)c1ccccc1	active: 20.3%
CCCCN1C(=O)C(CC(=O)NCCN2CCOCC2)CC(C(=O)N2CCOCC2)=C1C (centres undefined)	inconclusive: 66.7%

SMILES	CPE inhibition
C[C@@H]1CN([C@H](C)CO)C(=O)c2cc(C3=CCCC3)cnc2O[C@H]1CN(C)C(=O)Nc1ccccc1	inactive: -4.7%
Cc1ccc(S(=O)(=O)N2CCN(C(=S)NCC3CCCO3)CC2)cc1 (centres undefined)	inactive: -4.44%
Cc1ccccc1CN1CCCOCCS1(=O)=O	inactive: 8.61%
COc1ccc(CN(C)C[C@@H]2Oc3ccc(NS(=O)(=O)c4cccs4)cc3C(=O)N([C@H](C)CO)C[C@H]2C)cc1	active: 30.5%
CC(C#N)(NC(=O)CN1CCN(S(=O)(=O)c2ccccc2C#N)CC1)C1CC1 (centres undefined)	inconclusive: 48.3%
C[C@H](CO)N1C[C@H](C)[C@@H](CN(C)C(=O)CCC(F)(F)F)OCCCC[C@H](C)Oc2ccc(NC(=O)Cc3ccccc3)cc2C1=O	inconclusive: 29.6%
CCOC(=O)C1(C)CCCN(C(=O)c2cccc(C#N)c2)C1 (centres undefined)	inactive: -12.3%
C[C@@H]1CN([C@H](C)CO)C(=O)Cc2cc(NS(=O)(=O)c3ccccc3)ccc2O[C@H]1CN(C)Cc1ccc(Oc2ccccc2)cc1	inconclusive: 22.2%
COc1ccc(S(=O)(=O)Nc2ccc3c(c2)C(=O)N([C@@H](C)CO)C[C@@H](C)[C@H](CN(C)S(=O)(=O)c2cn(C)cn2)OCCCC[C@H](C)O3)cc1	inconclusive: 26.3%
CN(CC(=O)Nc1ccc(Cl)c(C(F)(F)F)c1)C(=O)c1cc(=O)[nH]c2ccccc12	inactive: 0.443%
O=C(Nc1ccc(O)cc1)c1ccc2c(c1)C(=O)N(N1C(=O)c3ccccc3C1=O)C2=O	inconclusive: 31.8%
O=C(CSC1=NNC(c2ccccn2)S1)Nc1cccc(Cl)c1 (centres undefined)	inactive: 3.15%
COc1ccc(S(=O)(=O)N2CCCCC2c2cc(C(=O)Nc3ccccc3)no2)cc1 (centres undefined)	active: 32.9%
C[C@H]1CN([C@@H](C)CO)C(=O)CCCn2nncc2CO[C@@H]1CN(C)C(=O)Nc1ccc(-c2cccs2)cc1	inconclusive: 31.1%
CCCCNC(=O)N(O)C1N(/N=C/c2cccnc2)C(=S)SC1(C)C (centres undefined)	inconclusive: 60.3%
COc1cccc(-c2cnc3c(NC=O)cc(-c4ccncc4)cn23)c1	active: 65.2%
CCOc1cc(OCC)cc(C(=O)N2CCC[C@@H]2C(=O)N2CCC[C@@H]2C(=O)NCc2ccccc2Cl)c1	active: 80.5%
CO[C@@H]1CN(C)C(=O)c2ccc(NC(=O)CC(F)(F)F)cc2OC[C@@H](C)N(C(=O)C2CCOCC2)C[C@@H]1C	active: 24.1%
CS(=O)(=O)Nc1ccc2c(c1)[C@H]1C[C@@H](CC(=O)NCCc3ccccc3)O[C@H](CO)[C@H]1O2	inactive: -2.53%
CC(C)NC(=O)Nc1cccc2c1O[C@@H](CN(C)CC1CC1)[C@H](C)CN([C@H](C)CO)C2=O	inactive: -4.76%
Cc1sc2nc(CSCC(=O)Nc3ccc(C(F)(F)F)cc3)[nH]c(=O)c2c1C	inconclusive: 31.4%
CS(=O)(=O)c1cccc(-c2ccc3nncn3c2)c1	inconclusive: 61.8%
COc1ccc2c3c(n(C)c2c1)[C@H](CO)NCC31CCN(Cc2ccccc2F)CC1	active: 30.8%
CCCNC(=O)[C@@H]1[C@@H](CO)[C@@H]2Cn3c(cccc3=O)[C@@H]2N1CC1CCCC1	inactive: 9%
C[C@H](CO)N1C[C@H](C)[C@H](CN(C)C(=O)CN(C)C)Oc2cc(C3=CCCCC3)ccc2S1(=O)=O	inactive: -11.4%

SMILES	CPE inhibition
O=C1/C(=C/c2cccnc2)SC(=S)N1c1ccc(F)cc1	inconclusive: 30.8%
CN(C)CCOC(=O)CC12CC3CC(C1)CC(CC(=O)OCCN(C)C)(C3)C2	inconclusive: 32.8%
C[C@@H]1CN([C@H](C)CO)C(=O)c2cc(NS(C)(=O)=O)ccc2O[C@@H]1CN(C)Cc1ccc(C(F)(F)F)cc1	inactive: -9.43%
O=C(CCNC(=O)c1ccco1)Nc1ccc(Cl)cc1F	active: 28.2%
Cc1ccc(NC(=O)C2CCN(S(=O)(=O)c3cccc(C(F)(F)F)c3)CC2)nc1	inconclusive: 44%
COc1cccc2c1CCC(NC(C)=O)C2=O (centres undefined)	inconclusive: 39.3%
CC1(C)CC(=O)C2=C(C1)NC(=O)NC2c1ccc(Cl)cc1 (centres undefined)	active: 22.6%
O=S(=O)(c1ccc(F)cc1)N1CC[C@@H]2[C@H]1c1cc(Br)ccc1N[C@@H]2CO	inconclusive: 27.9%
Cc1ncc([N+](=O)[O-])n1Cc1cccc(F)c1	inconclusive: 26.6%
COc1ccc(-c2ccc([C@H]3[C@@H](CO)N4CCCCN(S(=O)(=O)c5cccs5)C[C@@H]34)cc2)cc1	active: 21.6%
O=C(Nc1ccc2c(c1)OCCO2)C(c1ccnc2ccccc12)N1CCN(c2ccc(F)cc2)CC1 (centres undefined)	inconclusive: 55.6%
Cc1noc(C)c1NC(=O)N(C)C[C@H]1Oc2ccc(N(C)C)cc2C(=O)N([C@@H](C)CO)C[C@H]1C	active: 21.2%
N=C(N=C(N)N)N1CCOCC1	inconclusive: 43.9%
COc1ccc(OC)c2c1C(=O)C(Cl)=C(Cl)C2=O	inactive: -11%
CSc1ccccc1NC(=O)c1cnc2n(c1=O)CCS2	inconclusive: 30.3%
C[C@@H]1CN([C@H](C)CO)C(=O)c2cc(C#C[C@@H](C)O)cnc2O[C@H]1CN(C)C(=O)c1ccccc1	inconclusive: 27.8%
O=S(=O)(c1cccs1)N1CCN(c2ccnc3cc(Cl)ccc23)CC1	active: 64%
O=C(C[C@@H]1CC[C@@H]2[C@H](COC[C@H](O)CN2C(=O)c2cnccn2)O1)NCc1ccc(Oc2ccccc2)cc1	inconclusive: 27.7%
O=C(Nc1nnc2n1CCS2)c1ccco1	inactive: 0.117%
C[C@@H]1CN([C@@H](C)CO)C(=O)Cc2cc(NC(=O)CCCCCC(=O)Nc3ccccc3N)ccc2O[C@H]1CN(C)Cc1ccc(C(F)(F)F)cc1	active: 49.7%
COc1ccc(C(=O)CC(=O)C(=O)Nc2ccccc2OC)cc1	inconclusive: 36.4%
CCCNC(=O)NC[C@H]1[C@@H](c2ccc(C3=CCCCC3)cc2)[C@@H](CO)N1C(C)=O	inactive: 0.091%
Cc1cc(Br)cn2c(Cc3ccccc3)c(C3CCCCC3)nc12	inconclusive: 86.4%
O=C(CSCc1c(Cl)cccc1Cl)NCc1ccccn1	inactive: 3.99%
